In publication PMC6254012 one finds binding data, which are given here for two substances.

Amino acid sequences for entries named in this document (tags omitted). A change or cut given only in a name is not applied to a line headed by its entry. Chains listed by the source or under a name are the forms on record and can include a tag or linker. Residues count along the entry.
UniProt Q9LND1: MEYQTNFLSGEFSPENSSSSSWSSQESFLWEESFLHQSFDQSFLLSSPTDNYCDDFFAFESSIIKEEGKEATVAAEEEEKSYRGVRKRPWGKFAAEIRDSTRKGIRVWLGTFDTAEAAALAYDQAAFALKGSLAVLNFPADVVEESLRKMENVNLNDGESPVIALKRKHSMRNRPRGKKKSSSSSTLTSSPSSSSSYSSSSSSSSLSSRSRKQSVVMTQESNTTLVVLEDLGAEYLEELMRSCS
ORA59 with N-terminal 60 amino acids deleted (ORA59Δ1-60), fused to the GAL4 activation domain: residues 61-244 of Q9LND1
UniProt P42736: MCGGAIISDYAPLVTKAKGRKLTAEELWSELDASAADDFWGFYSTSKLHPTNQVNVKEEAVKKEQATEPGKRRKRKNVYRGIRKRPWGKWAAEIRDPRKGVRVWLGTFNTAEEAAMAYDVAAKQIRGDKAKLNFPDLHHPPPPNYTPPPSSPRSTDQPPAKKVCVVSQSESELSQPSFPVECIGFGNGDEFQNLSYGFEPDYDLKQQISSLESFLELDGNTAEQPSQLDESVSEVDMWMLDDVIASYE

Results are given in words; binding and its absence hold for the method and conditions named. For some assays here: In cells and extracts the contact can be indirect. Some binding calls cover weakened binding; strength is not graded here.

The target in assay [1] is ORA59 fused with the N-terminal part of YFP (ORA59^NE) (Arabidopsis thaliana) (UniProt Q9LND1). Kind of assay: split reporter; BiFC with split YFP (SPYNE, SPYCE) in transfected Arabidopsis protoplasts, 20-24 h expression; confocal microscopy.
In assay [2] the target is ORA59 with N-terminal 60 amino acids deleted (ORA59Δ1-60), fused to the GAL4 activation domain (Arabidopsis thaliana) (UniProt Q9LND1). Kind of assay: two-hybrid; direct re-test; yeast strain AH109 co-transformed with pGADT7 and pGBKT7 constructs; growth on SD/-Ade-His-Leu-Trp and α-galactosidase activity with 40 mg/L X-α-Gal.

For the substance “RAP2.3 fused with the C-terminal part of YFP (RAP2.3^CE) (from UniProt P42736 1-248)”, in assay [1], the binding result was “binds”.

In the case of “full-length RAP2.3 fused to the GAL4 DNA-binding domain (from UniProt P42736 1-248)”, the binding entry in assay [2] was “binds”.
